Results as given in PubChem BioAssay AID485314 (National Center for Advancing Translational Sciences (NCATS), 2010).
The whole screen tested about 340,000 compounds, of which about 4,500 (1.3%) were called active. Inconclusive means that the source gave no clear call. Such entries were picked first, then a sample of the others. The call rests on the fitted dose curve; in most records, active means well fitted inhibition curve with a large enough effect; inconclusive means small, poorly fitted or top-dose-only effect, or another doubt; inactive means no such curve, though single readings can be large or run the other way. Potencies beside an inconclusive call are fits to weak or partial responses and may not hold up.

biological target: DNA polymerase beta (Homo sapiens) (UniProt P06746); assay: qHTS Assay for Inhibitors of DNA Polymerase Beta; settings: Pol beta primer extension/strand displacement, fluorescence kinetic; activity change, negative = inhibition: at 114 µM (top of the series)
How it was run: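 Pol beta (10 nM) and compounds were preincubated 15 min at room temperature, then 50 nM substrate (final) started primer extension/strand displacement. Reads were taken at 0 and 10 min; concentration-response data were fitted to a four-parameter Hill equation.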
On the % scale 0 is the no-effect control and ±100 the full control effect; potency means the concentration at half of the fitted maximal effect.

Potency, inconclusive:
Clc1ccc(OCc2nn3c(-c4ccco4)nnc3s2)cc1 35.5 µM [inhibitor, full curve]
Cc1ccc(NC(=S)N2CCCC(c3nc4ccccc4[nH]3)C2)cc1 (stereo not drawn) 17.8 µM [inhibitor, full curve]
CC(C)=C1SC(N2CCCCC2)=NC1=O 100 µM [inhibitor, single point]
COCCCNC(=O)C1CCN(c2cc(C)nc3c(-c4ccc(OC)c(OC)c4)c(C)nn23)CC1 4.47 µM [inhibitor, full curve, poor fit]
COc1ccc(Cl)cc1NC(=O)c1nn(C)c2c1CS(=O)(=O)c1ccccc1-2 100 µM [inhibitor, single point]
CN(NC(=O)c1ccccc1)c1ncc(C(F)(F)F)cc1Cl 0.501 µM [inhibitor, full curve, poor fit]
COc1ccc(NC(=O)C2C(=O)N(CCO)C3(C)CC2c2ccccc2O3)cc1 (stereo not drawn) 50.1 µM [inhibitor, single point]
O=C1C(Cc2ccccc2)NC(=S)N1Cc1ccccc1 (stereo not drawn) 79.4 µM [inhibitor, single point]
Cn1c(=O)[nH]c(=O)c2c1nc(SCCN1CCCCC1)n2Cc1ccccc1 89.1 µM [inhibitor, single point]
Cc1cccc(OCC(=O)Nc2cc(C)ccc2O)c1 0.141 µM [inhibitor, full curve, poor fit]
CCC1(C)Cc2c(C#N)c(N)n(-c3ccccc3)c(=O)c2CO1 (stereo not drawn) 89.1 µM [inhibitor, single point]
COc1ccc(Cl)c2c1[nH]c1nc(SCc3ccccn3)nnc12 20 µM [inhibitor, full curve, poor fit]
COc1ccc(N=Cc2c(O)n(-c3cccc(C)n3)c(=O)c3ccccc23)cc1 39.8 µM [inhibitor, full curve]
O=C(Nc1ccc(N=Nc2ccccc2)c(NC(=O)C2CCCO2)c1)C1CCCO1 (stereo not drawn) 89.1 µM [inhibitor, single point]
O=C(NC(=S)N1CCCCCC1)C1CC1 89.1 µM [inhibitor, single point]
OCCCc1cn(Cc2ccccc2)c2ccccc12 0.126 µM [inhibitor, full curve, poor fit]
COc1cc(C2c3c([nH]c(=O)[nH]c3=O)Nc3ccc4ccccc4c32)ccc1O (stereo not drawn) 25.1 µM [inhibitor, full curve, poor fit]
O=C(Oc1ccc(OC(=O)N2CCCCC2)cc1)N1CCCCC1 89.1 µM [inhibitor, single point]
O=C(O)/C=C/c1ccc([N+](=O)[O-])o1 89.1 µM [inhibitor, single point]
Cc1ccc(CNC(=O)c2cc3c(=O)n4ccccc4nc3n(Cc3ccco3)c2=N)cc1 56.2 µM [inhibitor, partial curve]
Nc1ccc(-c2nc3ccccc3[nH]2)cc1 100 µM [inhibitor, single point]
CCOc1ccc(S(=O)(=O)Nc2cc(SCC(=O)O)c(O)c3ccccc23)cc1 89.1 µM [inhibitor, single point]
c1ccc(CNc2c3ccccc3nc3ccccc23)cc1 70.8 µM [inhibitor, single point]
Cc1ccc2cc(C=C(C#N)C#N)c(N3CCCCC3)nc2c1 79.4 µM [inhibitor, single point]
COc1ccccc1C(=O)NCc1ccncc1 28.2 µM [inhibitor, full curve, poor fit]
c1ccc2nc3c(nc2c1)[nH]c1ccccc13 25.1 µM [inhibitor, full curve, poor fit]
Nc1nnc(CC(=O)N/N=C/c2cc([N+](=O)[O-])cc(Br)c2O)s1 79.4 µM [inhibitor, single point]
Cc1ccc2nsnc2c1NC(=O)COc1ccccc1F 89.1 µM [inhibitor, single point]
COc1ccccc1Nc1nnc(SCC(=O)Nc2cc(C)on2)s1 0.794 µM [inhibitor, full curve, poor fit]
Cc1noc(C)c1CSc1ccccc1C(=O)Nc1nccs1 12.6 µM [inhibitor, partial curve, poor fit]
CC1CCN(S(=O)(=O)c2cn(CC(=O)Nc3cccc(C(F)(F)F)c3)c(=O)c3ccccc23)CC1 56.2 µM [inhibitor, partial curve, poor fit]
CCn1c(C(=O)NCCc2ccc(OC)c(OC)c2)cc2sc(Cl)cc21 0.141 µM [inhibitor, full curve, poor fit]
COc1cc([N+](=O)[O-])cc(/C=N/NC(=O)c2cccnc2)c1O 7.08 µM [inhibitor, partial curve, poor fit]
COc1ccccc1C(=O)n1nc(-c2cccnc2)nc1N 79.4 µM [inhibitor, single point]
COc1ccc(-c2c(NCCc3ccccc3)c(=O)c2=O)cc1 79.4 µM [inhibitor, partial curve, poor fit]
O=C(CSc1nnc(COc2ccccc2Cl)o1)NC(=O)NC1CCCC1 4.47 µM [inhibitor, single point]
CC(=O)/C(N=Nc1cc(C)ccc1O)=C(\C)O 15.8 µM [inhibitor, partial curve]
COc1ccc(SCc2cc(=O)c3cc(Cl)ccc3[nH]2)cc1 44.7 µM [inhibitor, partial curve, poor fit]
O=C1CCCCC1Sc1nnc(Cc2cccs2)n1CCc1ccccc1 (stereo not drawn) 89.1 µM [inhibitor, single point]
Cc1cccc2sc(NNC(=O)c3ccc(S(=O)(=O)N4CC(C)CC(C)C4)cc3)nc12 (stereo not drawn) 63.1 µM [inhibitor, single point]

Among those listed so far, three contain a nitro group on carbon:
Potency, inconclusive:
O=C(O)/C=C/c1ccc([N+](=O)[O-])o1 89.1 µM [inhibitor, single point]
Nc1nnc(CC(=O)N/N=C/c2cc([N+](=O)[O-])cc(Br)c2O)s1 79.4 µM [inhibitor, single point]
COc1cc([N+](=O)[O-])cc(/C=N/NC(=O)c2cccnc2)c1O 7.08 µM [inhibitor, partial curve, poor fit]

Random excerpt: two entries already listed
Potency, inconclusive:
COc1cc(C2c3c([nH]c(=O)[nH]c3=O)Nc3ccc4ccccc4c32)ccc1O (stereo not drawn) 25.1 µM [inhibitor, full curve, poor fit]
Cc1ccc(CNC(=O)c2cc3c(=O)n4ccccc4nc3n(Cc3ccco3)c2=N)cc1 56.2 µM [inhibitor, partial curve]

Following part.

Potency, inactive:
COc1ccc(CC(=O)OCC(=O)Nc2ncc(Cl)cc2Cl)cc1OC
COc1cccc(CC2(CO)CCCN(Cc3sc(N4CCCC4)nc3Cl)C2)c1 (stereo not drawn)
CCOc1cc(-c2nc(-c3ccc(-c4ccc(OC)cc4)nc3OC)no2)cc(OCC)c1OCC
O=c1[nH]c(SCc2ccc(Br)cc2)nc2c1CCCC2
Cc1ccc(S(=O)(=O)c2nnn3c2nc(N2CCN(c4ccccc4F)CC2)c2ccccc23)cc1C
CC(C)(C)C(=O)N1CCN(c2nc3c(F)cccc3s2)CC1
COc1ccc(-c2cc(C(=O)Oc3ccc(C)c(C)c3)c3ccccc3n2)cc1
Cc1ccc(C(=O)NC2(C(F)(F)F)C(=O)Nc3c2c(=O)[nH]c(=O)n3CCc2ccccc2)cc1 (stereo not drawn)
Cc1ccccc1-n1nc2c(c1NC(=O)c1c(-c3ccccc3Cl)noc1C)CSC2
Cc1ccc(-n2nc(C(=O)N3CCC(C)CC3)c(=O)n(C)c2=O)cc1
CC(C)(C)OC(=O)N1CCC(c2c(C(=O)N3CCN(C(=O)c4ccco4)CC3)cnn2-c2cccc(F)c2)CC1
Cc1ccc(Cc2nc3ccccc3nc2SCC(=O)Nc2ccc3c(c2)OCO3)cc1
Cc1ccc(OC(C)C(=O)Nc2nonc2-c2ccc(Br)cc2)cc1C (stereo not drawn)
O=C(Nc1cccc2ccccc12)c1ccc([N+](=O)[O-])cc1
N#C/C(=C\c1ccc(-c2cccc([N+](=O)[O-])c2)o1)C(=O)N1CCOCC1
COc1ccccc1CNC(=O)C1CCCN(c2nc3ccccc3n3cccc23)C1 (stereo not drawn)
Cc1ccn2c(=O)c(C(=O)O)cnc2c1
COc1cccc(NC(=O)c2ccc3nc(CCc4ccccc4)oc3c2)c1
Cc1nc(NC2=NCN(Cc3cccnc3)CN2)nc2ccccc12
CCOC(=O)c1cnn(-c2ccc(C(=O)Nc3cc(OC)c(OC)c(OC)c3)cc2)c1N
Cc1cccc(C(=O)OCC(=O)Nc2ccc(F)cc2)c1
COc1ccc(CN(C(=O)/C=C/c2ccco2)C2CCS(=O)(=O)C2)cc1OC (stereo not drawn)
COc1ccc(-c2nc(CS(=O)CC(=O)NCc3ccco3)c(C)o2)cc1 (stereo not drawn)

Potency, active:
COCCN(CCOC)C(=O)c1cc2c(=O)n3ccccc3nc2n1C 10 µM
O=C1c2sc3nc4n(c(=O)c3c2CCC1Br)CCCCC4 (stereo not drawn) 50.1 µM
Cc1c(OC(C)C(=O)NC(Cc2c[nH]c3ccc(O)cc23)C(=O)O)ccc2c1oc(=O)c1ccccc12 (stereo not drawn) 2.51 µM
O=C(CCc1ccc(O)cc1)c1c(O)cc(O)cc1O 7.08 µM
CCOC(=O)C1=C(C)N=c2s/c(=C\c3ccc(OCC(=O)O)cc3)c(=O)n2C1c1ccc(Cl)cc1 (stereo not drawn) 22.4 µM
O=C(NCCCN1CCCC1=O)c1ccc2c(=O)n(Cc3ccco3)c(=S)[nH]c2c1 31.6 µM
O=C(Nc1ccccc1)c1nnsc1S(=O)(=O)c1ccc(Cl)cc1 44.7 µM
COc1cc2c(cc1OC)CN(C(=O)Cn1ccccc1=O)CC2 79.4 µM

Activity change, negative = inhibition, inconclusive:
O=c1c2ccccc2nc(COc2ccccc2)n1/N=C/c1ccc(O)c(O)c1 -84.5% [inhibitor]
CC(C)[C@H](NC(=O)N1CCn2c1nc1ccccc12)C(=O)NC1CCCCC1 -73.9% [inhibitor]
